Assay results taken from article PMC8384837.
Positions count from the first letter of the chain named. This is one part of the list. For some assays here: At the low end of the ranking the order means little.

Assays:
Conditions in all cases: yeast three-hybrid, YBZ-1, SC-Leu-His + 0.5 mM 3-AT, 4 days
[1] = molecular target: T1, PUM1 PUF domain R2-AKP N899A + Y900K + Q903P (Homo sapiens) (UniProt Q14671)
T1 sequence: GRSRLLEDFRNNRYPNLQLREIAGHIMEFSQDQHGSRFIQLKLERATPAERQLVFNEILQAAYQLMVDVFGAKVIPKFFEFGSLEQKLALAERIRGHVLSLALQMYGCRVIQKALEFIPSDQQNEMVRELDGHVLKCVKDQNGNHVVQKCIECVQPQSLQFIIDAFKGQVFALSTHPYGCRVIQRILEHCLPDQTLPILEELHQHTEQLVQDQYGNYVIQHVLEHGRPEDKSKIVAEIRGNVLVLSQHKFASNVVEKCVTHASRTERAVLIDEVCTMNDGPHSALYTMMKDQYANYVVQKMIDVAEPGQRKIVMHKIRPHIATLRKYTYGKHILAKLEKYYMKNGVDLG

[2] = molecular target: T2, PUM1 PUF domain R2-CGI N899C + Y900G + Q903I (UniProt Q14671)
T2 sequence: T1 sequence with A72C, K73G, P76I

[3] = molecular target: T3, PUM1 PUF domain R2-DFE N899D + Y900F + Q903E (UniProt Q14671)
T3 sequence: T1 sequence with A72D, K73F, P76E

[4] = molecular target: T4, PUM1 PUF domain R2-DWE N899D + Y900W + Q903E (UniProt Q14671)
T4 sequence: T1 sequence with A72D, K73W, P76E

[5] = molecular target: T5, PUM1 PUF domain R2-KLS N899K + Y900L + Q903S (UniProt Q14671)
T5 sequence: T1 sequence with A72K, K73L, P76S

[6] = molecular target: T6, PUM1 PUF domain R2-KRA N899K + Y900R + Q903A (Homo sapiens) (UniProt Q14671)
T6 sequence: T1 sequence with A72K, K73R, P76A

[7] = molecular target: T7, PUM1 PUF domain R2-KRG N899K + Y900R + Q903G (Homo sapiens) (UniProt Q14671)
T7 sequence: T1 sequence with A72K, K73R, P76G

[8] = molecular target: T8, PUM1 PUF domain R2-LLL N899L + Y900L + Q903L (Homo sapiens) (UniProt Q14671)
T8 sequence: T1 sequence with A72L, K73L, P76L

[9] = molecular target: T9, PUM1 PUF domain R2-LLY N899L + Y900L + Q903Y (Homo sapiens) (UniProt Q14671)
T9 sequence: T1 sequence with A72L, K73L, P76Y

[10] = molecular target: T10, PUM1 PUF domain R2-MWR N899M + Y900W + Q903R (UniProt Q14671)
T10 sequence: T1 sequence with A72M, K73W, P76R

[11] = molecular target: T11, PUM1 PUF domain R2-QWR N899Q + Y900W + Q903R (UniProt Q14671)
T11 sequence: T1 sequence with A72Q, K73W, P76R

[12] = molecular target: T12, PUM1 PUF domain R2-RKA N899R + Y900K + Q903A (UniProt Q14671)
T12 sequence: T1 sequence with A72R, P76A

[13] = molecular target: T13, PUM1 PUF domain R2-RKG N899R + Y900K + Q903G (UniProt Q14671)
T13 sequence: T1 sequence with A72R, P76G

[14] = molecular target: T14, PUM1 PUF domain R2-RKW N899R + Y900K + Q903W (Homo sapiens) (UniProt Q14671)
T14 sequence: T1 sequence with A72R, P76W

[15] = molecular target: T15, PUM1 PUF domain R2-RRC N899R + Y900R + Q903C (Homo sapiens) (UniProt Q14671)
T15 sequence: T1 sequence with A72R, K73R, P76C

[16] = molecular target: T16, PUM1 PUF domain R2-RRM N899R + Y900R + Q903M (UniProt Q14671)
T16 sequence: T1 sequence with A72R, K73R, P76M

[17] = molecular target: T17, PUM1 PUF domain R2-RVN N899R + Y900V + Q903N (Homo sapiens) (UniProt Q14671)
T17 sequence: T1 sequence with A72R, K73V, P76N

[18] = molecular target: T18, PUM1 PUF domain R2-RVT N899R + Y900V + Q903T (Homo sapiens) (UniProt Q14671)
T18 sequence: T1 sequence with A72R, K73V, P76T

[19] = molecular target: T19, PUM1 PUF domain R1-QFR R3-THE R4-TFR S863Q + R864F + Q867R + C935T + R936H + Q939E + N971T + H972F + Q975R (Homo sapiens) (UniProt Q14671)
T19 sequence: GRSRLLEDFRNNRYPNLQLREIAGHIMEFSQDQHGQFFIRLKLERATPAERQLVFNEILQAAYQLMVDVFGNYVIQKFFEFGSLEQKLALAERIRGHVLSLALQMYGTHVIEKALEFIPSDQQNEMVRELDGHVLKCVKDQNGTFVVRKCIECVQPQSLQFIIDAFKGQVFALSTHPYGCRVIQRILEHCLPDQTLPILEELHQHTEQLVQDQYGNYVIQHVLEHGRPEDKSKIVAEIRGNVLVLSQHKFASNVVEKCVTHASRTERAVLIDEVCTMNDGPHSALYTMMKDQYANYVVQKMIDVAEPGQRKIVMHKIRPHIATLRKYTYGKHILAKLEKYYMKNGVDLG

[20] = molecular target: T20, PUM1 PUF domain R1-QFR R6-SWD R7-NPG S863Q + R864F + Q867R + N1043S + Y1044W + Q1047D + S1079N + N1080P + E1083G (Homo sapiens) (UniProt Q14671)
T20 sequence: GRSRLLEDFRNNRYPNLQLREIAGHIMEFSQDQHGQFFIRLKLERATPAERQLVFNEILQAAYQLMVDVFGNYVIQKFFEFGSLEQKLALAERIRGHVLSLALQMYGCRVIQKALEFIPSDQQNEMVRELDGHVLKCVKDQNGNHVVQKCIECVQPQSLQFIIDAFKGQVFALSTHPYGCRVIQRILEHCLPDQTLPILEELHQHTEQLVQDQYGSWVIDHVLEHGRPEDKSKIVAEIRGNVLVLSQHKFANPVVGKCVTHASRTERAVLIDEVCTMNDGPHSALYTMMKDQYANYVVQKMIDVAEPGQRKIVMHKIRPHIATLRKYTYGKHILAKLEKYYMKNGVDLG

Q: For “GGCUAGAACUAGUGGAUCCCCCGGCGCCCGGCGGCUCGAGCCCGGGUAAGUGUAAAAAGUCUGCAUGCCGCCGGGCGCCAUGCCUGCAGGUCGACUCUAGAAAACAUG”, which binding signal (log2 enrichment (interaction score)) [1] is on record?
A: -3.55

Q: What about the binding signal (log2 enrichment (interaction score)) [2] of the same sequence?
A: < -5.99

Q: And the binding signal (log2 enrichment (interaction score)) [3]?
A: < -8.46

Q: And the binding signal (log2 enrichment (interaction score)) [4]?
A: < -8.83

Q: What about the binding signal (log2 enrichment (interaction score)) [5] of the same sequence?
A: < -8.3

Q: What about the binding signal (log2 enrichment (interaction score)) [6] of the same sequence?
A: -2.18

Q: And the binding signal (log2 enrichment (interaction score)) [7]?
A: -3.03

Q: What about the binding signal (log2 enrichment (interaction score)) [8] of the same sequence?
A: -6.31

Q: And the binding signal (log2 enrichment (interaction score)) [9]?
A: -1.47

Q: What about the binding signal (log2 enrichment (interaction score)) [10] of the same sequence?
A: -4.6

Q: And the binding signal (log2 enrichment (interaction score)) [11]?
A: -3.98

Q: What about the binding signal (log2 enrichment (interaction score)) [12] of the same sequence?
A: < -8.09

Q: What about the binding signal (log2 enrichment (interaction score)) [13] of the same sequence?
A: < -10.2

Q: What about the binding signal (log2 enrichment (interaction score)) [14] of the same sequence?
A: -5.25

Q: And the binding signal (log2 enrichment (interaction score)) [15]?
A: -1.18

Q: And the binding signal (log2 enrichment (interaction score)) [16]?
A: < -6.7

Q: What about the binding signal (log2 enrichment (interaction score)) [17] of the same sequence?
A: -1.66

Q: And the binding signal (log2 enrichment (interaction score)) [18]?
A: -5.29

Q: Which binding signal (log2 enrichment (interaction score)) [19] does the source give for “GGCUAGAACUAGUGGAUCCCCCGGCGCCCGGCGGCUCGAGCCCGGGUAAGUGUACGUCGUCUGCAUGCCGCCGGGCGCCAUGCCUGCAGGUCGACUCUAGAAAACAUG” here?
A: 1.57

Q: Which binding signal (log2 enrichment (interaction score)) [20] does the source give for “GGCUAGAACUAGUGGAUCCCCCGGCGCCCGGCGGCUCGAGCCCGGGUAAGUUGAAAUCGUCUGCAUGCCGCCGGGCGCCAUGCCUGCAGGUCGACUCUAGAAAACAUG” here?
A: -4.7
